The record followed here is US10322191B2 (TARVEDA THERAPEUTICS, INC., priority 2014, dated 2019).

The series is described as follows: general procedure: Fmoc solid-phase peptide synthesis; 2-chlorotrityl resin. The conditions noted are these: acetate salt (several conjugates).

“BocHN-Cys(Trt)-[Lys(Boc)]4-octreotide(Lys-Boc)”: where the note is “coupling step”, the step yield is reported as 22% yield. For “Lys-Boc octreotide 3-tritylmercaptopropionamide”, the step yield (late stage modification step) came out at 93% yield. As to Lys-Boc octreotide acetate, the step yield by setting is: (late stage modification step, run 1) 67% yield; (late stage modification step, run 2) 74% yield. On to Lys-Fmoc octreotide, for which the step yield (late stage modification step) stood at 71% yield. For the substance “Lys-Fmoc octreotide hemiglutarate FMoc doxorubicin”, the conjugation yield (conjugation step) came out at 96% yield.
